{
  "source": "patent US20040106120A1",
  "about": "“Diagnosis and treatment of disease” (priority 2000, published 2004)",
  "test_system": "eczema lesional and non-lesional skin",
  "assay": "Affymetrix oligonucleotide array gene expression in eczema, involved and uninvolved skin compared to normal skin",
  "set-up": "species or system human; key: ++: normally expressed; +++: strongly expressed; ++++: highly expressed; +down-regulation",
  "details": "protease genes",
  "data": [
    {"substance": "SCTE: recombinant Stratum Corneum Tryptic Enzyme expressed in an active form", "values": [
      {"measurement": "Expression level Involved", "setting": "eczema lesional skin (involved)", "value": "++++"},
      {"measurement": "Expression level Uninvolved", "setting": "eczema non-lesional skin (uninvolved)", "value": "+++"}
    ]}
  ]
}
